The labels stand for the following.
B1: SSR4 (protein, UniProt P51571 24-173, looked up)
Translocon-associated protein …: EACLEPQITPSYYTTSDAVISTETVFIVEISLTCKNRVQNMALYADVGGKQFPVTRGQDVGRYQVSWSLDHKSAHAGTYEVRFFDEESYSLLRKAQRNNEDISIIPPLFTVSVDHRGTWNGPWVSTEVLAAAIGLVIYYLAFSAKSHIQA
B2: PPAN (protein, UniProt Q9NQ55 1-473, looked up)
Suppressor of SWI4 1 homolog: MGQSGRSRHQKRARAQAQLRNLEAYAANPHSFVFTRGCTGRNIRQLSLDVRRVMEPLTASRLQVRKKNSLKDCVAVAGPLGVTHFLILSKTETNVYFKLMRLPGGPTLTFQVKKYSLVRDVVSSLRRHRMHEQQFAHPPLLVLNSFGPHGMHVKLMATMFQNLFPSINVHKVNLNTIKRCLLIDYNPDSQELDFRHYSIKVVPVGASRGMKKLLQEKFPNMSRLQDISELLATGAGLSESEAEPDGDHNITELPQAVAGRGNMRAQQSAVRLTEIGPRMTLQLIKVQEGVGEGKVMFHSFVSKTEEELQAILEAKEKKLRLKAQRQAQQAQNVQRKQEQREAHRKKSLEGMKKARVGGSDEEASGIPSRTASLELGEDDDEQEDDDIEYFCQAVGEAPSEDLFPEAKQKRLAKSPGRKRKRWEMDRGRGRLCDQKFPKTKDKSQGAQARRGPRGASRDGGRGRGRGRPGKRVA
B3: IDH2 (protein, UniProt P48735 40-452, looked up)
Isocitrate dehydrogenase …: ADKRIKVAKPVVEMDGDEMTRIIWQFIKEKLILPHVDIQLKYFDLGLPNRDQTDDQVTIDSALATQKYSVAVKCATITPDEARVEEFKLKKMWKSPNGTIRNILGGTVFREPIICKNIPRLVPGWTKPITIGRHAHGDQYKATDFVADRAGTFKMVFTPKDGSGVKEWEVYNFPAGGVGMGMYNTDESISGFAHSCFQYAIQKKWPLYMSTKNTILKAYDGRFKDIFQEIFDKHYKTDFDKNKIWYEHRLIDDMVAQVLKSSGGFVWACKNYDGDVQSDILAQGFGSLGLMTSVLVCPDGKTIEAEAAHGTVTRHYREHQKGRPTSTNPIASIFAWTRGLEHRGKLDGNQDLIRFAQMLEKVCVETVESGAMTKDLAGCIHGLSNVKLNEHFLNTTDFLDTIKSNLDRALGRQ
B4: NOP58 (protein, UniProt Q9Y2X3 1-529, looked up)
Nucleolar protein 58: MLVLFETSVGYAIFKVLNEKKLQEVDSLWKEFETPEKANKIVKLKHFEKFQDTAEALAAFTALMEGKINKQLKKVLKKIVKEAHEPLAVADAKLGGVIKEKLNLSCIHSPVVNELMRGIRSQMDGLIPGVEPREMAAMCLGLAHSLSRYRLKFSADKVDTMIVQAISLLDDLDKELNNYIMRCREWYGWHFPELGKIISDNLTYCKCLQKVGDRKNYASAKLSELLPEEVEAEVKAAAEISMGTEVSEEDICNILHLCTQVIEISEYRTQLYEYLQNRMMAIAPNVTVMVGELVGARLIAHAGSLLNLAKHAASTVQILGAEKALFRALKSRRDTPKYGLIYHASLVGQTSPKHKGKISRMLAAKTVLAIRYDAFGEDSSSAMGVENRAKLEARLRTLEDRGIRKISGTGKALAKTEKYEHKSEVKTYDPSGDSTLPTCSKKRKIEQVDKEDEITEKKAKKAKIKVKVEEEEEEKVAEEEETSVKKKKKRGKKKHIKEEPLSEEEPCTSTAIASPEKKKKKKKKRENED
B5: KPNA3 (protein, UniProt O00505 2-521, looked up)
Importin subunit alpha-4: AENPSLENHRIKSFKNKGRDVETMRRHRNEVTVELRKNKRDEHLLKKRNVPQEESLEDSDVDADFKAQNVTLEAILQNATSDNPVVQLSAVQAARKLLSSDRNPPIDDLIKSGILPILVKCLERDDNPSLQFEAAWALTNIASGTSAQTQAVVQSNAVPLFLRLLRSPHQNVCEQAVWALGNIIGDGPQCRDYVISLGVVKPLLSFISPSIPITFLRNVTWVIVNLCRNKDPPPPMETVQEILPALCVLIYHTDINILVDTVWALSYLTDGGNEQIQMVIDSGVVPFLVPLLSHQEVKVQTAALRAVGNIVTGTDEQTQVVLNCDVLSHFPNLLSHPKEKINKEAVWFLSNITAGNQQQVQAVIDAGLIPMIIHQLAKGDFGTQKEAAWAISNLTISGRKDQVEYLVQQNVIPPFCNLLSVKDSQVVQVVLDGLKNILIMAGDEASTIAEIIEECGGLEKIEVLQQHENEDIYKLAFEIIDQYFSGDDIDEDPCLIPEATQGGTYNFDPTANLQTKEFNF
B6: HNRNPL (protein, UniProt P14866 1-589, looked up)
Heterogeneous nuclear …: MSRRLLPRAEKRRRRLEQRQQPDEQRRRSGAMVKMAAAGGGGGGGRYYGGGSEGGRAPKRLKTDNAGDQHGGGGGGGGGAGAAGGGGGGENYDDPHKTPASPVVHIRGLIDGVVEADLVEALQEFGPISYVVVMPKKRQALVEFEDVLGACNAVNYAADNQIYIAGHPAFVNYSTSQKISRPGDSDDSRSVNSVLLFTILNPIYSITTDVLYTICNPCGPVQRIVIFRKNGVQAMVEFDSVQSAQRAKASLNGADIYSGCCTLKIEYAKPTRLNVFKNDQDTWDYTNPNLSGQGDPGSNPNKRQRQPPLLGDHPAEYGGPHGGYHSHYHDEGYGPPPPHYEGRRMGPPVGGHRRGPSRYGPQYGHPPPPPPPPEYGPHADSPVLMVYGLDQSKMNCDRVFNVFCLYGNVEKVKFMKSKPGAAMVEMADGYAVDRAITHLNNNFMFGQKLNVCVSKQPAIMPGQSYGLEDGSCSYKDFSESRNNRFSTPEQAAKNRIQHPSNVLHFFNAPLEVTEENFFEICDELGVKRPSSVKVFSGKSERSSSGLLEWESKSDALETLGFLNHYQMKNPNGPYPYTLKLCFSTAQHAS
B7: VDAC2 (protein, UniProt P45880 2-294, looked up)
Non-selective voltage-gated …: ATHGQTCARPMCIPPSYADLGKAARDIFNKGFGFGLVKLDVKTKSCSGVEFSTSGSSNTDTGKVTGTLETKYKWCEYGLTFTEKWNTDNTLGTEIAIEDQICQGLKLTFDTTFSPNTGKKSGKIKSSYKRECINLGCDVDFDFAGPAIHGSAVFGYEGWLAGYQMTFDSAKSKLTRNNFAVGYRTGDFQLHTNVNDGTEFGGSIYQKVCEDLDTSVNLAWTSGTNCTRFGIAAKYQLDPTASISAKVNNSSLIGVGYTQTLRPGVKLTLSALVDGKSINAGGHKVGLALELEA
B8: NIPSNAP1 (protein, UniProt Q9BPW8 36-284, looked up)
Protein NipSnap homolog 1: SKDNEGSWFRSLFVHKVDPRKDAHSTLLSKKETSNLYKIQFHNVKPEYLDAYNSLTEAVLPKLHLDEDYPCSLVGNWNTWYGEQDQAVHLWRFSGGYPALMDCMNKLKNNKEYLEFRRERSQMLLSRRNQLLLEFSFWNEPQPRMGPNIYELRTYKLKPGTMIEWGNNWARAIKYRQENQEAVGGFFSQIGELYVVHHLWAYKDLQSREETRNAAWRKRGWDENVYYTVPLVRHMESRIMIPLKISPLQ
B9: PHF10 (protein)
chain: AAAAGPGAALSPRPCDSDPATPGAQSPKDDNEDNSNDGTQPSKRRRMGSGDSSRSCETSSQDLGFSYYPAENLIEYKWPPDETGEYYMLQEQVSEYLGVTSFKRKYPDLERRDLSHKEKLYLRELNVITETQCTLGLTALRSDEVIDLMIKEYPAKHAEYSVILQEKERQRITDHYKEYSQMQQQNTQKVEASKVPEYIKKAAKKAAEFNSNLNRERMEERRAYFDLQTHVIQVPQGKYKVLPTERTKVSSYPVALIPGQFQEYYKRYSPDELRYLPLNTALYEPPLDPELPALDSDGDSDDGEDGRGDEKRKNKGTSDSSSGNVSEGESPPDSQEDSFQGRQKSKDKAATPRKDGPKRSVLSKSVPGYKPKVIPNAICGICLKGKESNKKGKAESLIHCSQCENSGHPSCLDMTMELVSMIKTYPWQCMECKTCIICGQPHHEEEMMFCDMCDRGYHTFCVGLGAIPSGRWICDCCQRAPPTPRKVGRRGKNSKEG
B10: MTHFD2 (protein, UniProt P13995 36-350, looked up)
Bifunctional …: EAVVISGRKLAQQIKQEVRQEVEEWVASGNKRPHLSVILVGENPASHSYVLNKTRAAAVVGINSETIMKPASISEEELLNLINKLNNDDNVDGLLVQLPLPEHIDERRICNAVSPDKDVDGFHVINVGRMCLDQYSMLPATPWGVWEIIKRTGIPTLGKNVVVAGRSKNVGMPIAMLLHTDGAHERPGGDATVTISHRYTPKEQLKKHTILADIVISAAGIPNLITADMIKEGAAVIDVGINRVHDPVTAKPKLVGDVDFEGVRQKAGYITPVPGGVGPMTVAMLMKNTIIAAKKVLRLEEREVLKSKELGVATN
B11: GCDH (protein, UniProt Q92947 45-438, looked up)
Glutaryl-CoA dehydrogenase, …: RPEFDWQDPLVLEEQLTTDEILIRDTFRTYCQERLMPRILLANRNEVFHREIISEMGELGVLGPTIKGYGCAGVSSVAYGLLARELERVDSGYRSAMSVQSSLVMHPIYAYGSEEQRQKYLPQLAKGELLGCFGLTEPNSGSDPSSMETRAHYNSSNKSYTLNGTKTWITNSPMADLFVVWARCEDGCIRGFLLEKGMRGLSAPRIQGKFSLRASATGMIIMDGVEVPEENVLPGASSLGGPFGCLNNARYGIAWGVLGASEFCLHTARQYALDRMQFGVPLARNQLIQKKLADMLTEITLGLHACLQLGRLKDQDKAAPEMVSLLKRNNCGKALDIARQARDMLGGNGISDEYHVIRHAMNLEAVNTYEGTHDIHALILGRAITGIQAFTASK
B12: ATAD3B (protein, UniProt Q5T9A4 2-648, looked up)
ATPase family AAA …: SWLFGVNKGPKGEGAGPPPPLPPAQPGAEGGGDRGLGDRPAPKDKWSNFDPTGLERAAKAARELEHSRYAKEALNLAQMQEQTLQLEQQSKLKEYEAAVEQLKSEQIRAQAEERRKTLSEETRQHQARAQYQDKLARQRYEDQLKQQQLLNEENLRKQEESVQKQEAMRRATVEREMELRHKNEMLRVETEARARAKAERENADIIREQIRLKASEHRQTVLESIRTAGTLFGEGFRAFVTDRDKVTATVAGLTLLAVGVYSAKNATAVTGRFIEARLGKPSLVRETSRITVLEALRHPIQVSRRLLSRPQDVLEGVVLSPSLEARVRDIAIATRNTKKNRGLYRHILLYGPPGTGKTLFAKKLALHSGMDYAIMTGGDVAPMGREGVTAMHKLFDWANTSRRGLLLFMDEADAFLRKRATEEISKDLRATLNAFLYHMGQHSNKFMLVLASNLPEQFDCAINSRIDVMVHFDLPQQEERERLVRLHFDNCVLKPATEGKRRLKLAQFDYGRKCSEVARLTEGMSGREIAQLAVSWQATAYASKDGVLTEAMMDACVQDAVQQYRQKMRWLKAEGPGRGVEHPLSGVQGETLTSWSLATDPSYPCLAGPCTFRICSWMGTGLCPGPLSPRMSCGGGRPFCPPGHPLL

In the first series the test system is mSWI/SNF complexes. Nature of the series: mSWI/SNF complex purification with HA-tagged baits and mass spectrometry (peptide counts). Set-up: species or system human. The conditions noted are these: 293_HA-BRD7: HA-BRD7 bait purification, total peptide count per co-purified protein.
For B1, the Total is 6.

B2 gave a Total of 6.

Molecule B3 registered a Total of 6.

For the molecule B4, the Total is given as 5.

Consider B5, for which the Total was 5.

Turning to B6, the Total came to 5.

With B7, the Total turned out to be 6.

As to B8, the Total stood at 5.

Molecule B9 came in with a Total of 58.

The molecule B10 had a Total of 5.

For B11, the Total is recorded as 5.

In turn, B12 registered a Total of 6.

Staying with this series, now noted: 293_HA-BRD7: HA-BRD7 bait purification, unique peptide count per co-purified protein.
In turn, B1 showed a Unique of 5.

In turn, B2 returned a Unique of 6.

B3 gave a Unique of 5.

B4 yielded a Unique of 5.

As to B5, the Unique is on record as 5.

The molecule B6 came in with a Unique of 5.

As to B7, the Unique is given as 6.

B8 came in with a Unique of 5.

Molecule B9 yielded a Unique of 31.

The molecule B10 registered a Unique of 5.

In the case of B11, the Unique was 5.

With B12, the Unique worked out at 5.
